In the supplement of paper PMC12819154, “High-throughput peptide-centric local stability assay extends protein–ligand identification to membrane proteins, tissues and bacteria” (Nature Structural & Molecular Biology, 2025):
The list shows a part of the results. Small differences around the control level are noise.

Amino acid sequences for entries named in this document (tags omitted). A change or cut given only in a name is not applied to a line headed by its entry.
UniProt Q8R3D1: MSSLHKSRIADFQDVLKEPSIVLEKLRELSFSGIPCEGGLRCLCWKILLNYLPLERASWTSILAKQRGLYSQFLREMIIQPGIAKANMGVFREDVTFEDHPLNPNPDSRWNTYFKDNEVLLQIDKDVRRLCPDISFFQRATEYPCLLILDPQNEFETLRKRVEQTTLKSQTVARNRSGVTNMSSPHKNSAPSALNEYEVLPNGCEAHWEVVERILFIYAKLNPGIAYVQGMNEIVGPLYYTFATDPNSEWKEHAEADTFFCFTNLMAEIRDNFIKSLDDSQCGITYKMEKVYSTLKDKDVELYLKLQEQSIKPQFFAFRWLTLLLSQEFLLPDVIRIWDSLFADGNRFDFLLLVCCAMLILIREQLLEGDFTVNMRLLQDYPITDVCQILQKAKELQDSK
UniProt Q8VCN5, whole entry: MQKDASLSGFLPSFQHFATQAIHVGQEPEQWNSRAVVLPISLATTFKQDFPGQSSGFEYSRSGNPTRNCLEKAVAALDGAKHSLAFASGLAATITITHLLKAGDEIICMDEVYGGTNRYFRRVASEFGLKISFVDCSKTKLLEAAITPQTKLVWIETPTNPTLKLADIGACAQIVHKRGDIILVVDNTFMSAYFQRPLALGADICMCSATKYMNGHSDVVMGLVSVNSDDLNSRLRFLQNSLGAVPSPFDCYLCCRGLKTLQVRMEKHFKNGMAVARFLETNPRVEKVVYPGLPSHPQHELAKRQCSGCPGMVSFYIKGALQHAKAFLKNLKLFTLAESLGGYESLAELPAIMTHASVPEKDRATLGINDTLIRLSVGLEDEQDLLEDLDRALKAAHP
UniProt Q8R3R5: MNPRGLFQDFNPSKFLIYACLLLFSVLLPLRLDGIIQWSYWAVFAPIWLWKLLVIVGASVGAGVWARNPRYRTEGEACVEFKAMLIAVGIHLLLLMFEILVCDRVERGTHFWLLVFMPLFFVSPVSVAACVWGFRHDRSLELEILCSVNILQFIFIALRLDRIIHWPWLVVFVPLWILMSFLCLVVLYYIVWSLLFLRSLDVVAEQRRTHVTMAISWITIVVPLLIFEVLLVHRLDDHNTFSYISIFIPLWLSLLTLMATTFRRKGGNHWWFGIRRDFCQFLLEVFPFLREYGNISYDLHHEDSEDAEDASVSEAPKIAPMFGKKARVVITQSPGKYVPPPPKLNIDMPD
UniProt Q8VCW8: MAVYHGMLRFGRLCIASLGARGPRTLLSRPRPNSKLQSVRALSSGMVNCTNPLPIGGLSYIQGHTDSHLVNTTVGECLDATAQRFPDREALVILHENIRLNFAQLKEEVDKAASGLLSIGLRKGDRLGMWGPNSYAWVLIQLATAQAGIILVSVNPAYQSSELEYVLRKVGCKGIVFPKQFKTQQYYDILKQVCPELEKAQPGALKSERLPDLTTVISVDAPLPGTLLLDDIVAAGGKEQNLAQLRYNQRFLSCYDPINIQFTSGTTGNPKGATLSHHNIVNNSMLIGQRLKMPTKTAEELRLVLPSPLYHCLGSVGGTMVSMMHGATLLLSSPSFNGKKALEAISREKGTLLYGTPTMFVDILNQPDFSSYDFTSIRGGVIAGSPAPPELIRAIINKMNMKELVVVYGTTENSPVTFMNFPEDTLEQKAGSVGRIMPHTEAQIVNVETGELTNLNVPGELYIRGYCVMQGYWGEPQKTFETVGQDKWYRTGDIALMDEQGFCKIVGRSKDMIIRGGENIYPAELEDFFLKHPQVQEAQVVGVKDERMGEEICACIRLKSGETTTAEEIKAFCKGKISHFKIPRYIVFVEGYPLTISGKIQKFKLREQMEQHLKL
UniProt Q8R2U7: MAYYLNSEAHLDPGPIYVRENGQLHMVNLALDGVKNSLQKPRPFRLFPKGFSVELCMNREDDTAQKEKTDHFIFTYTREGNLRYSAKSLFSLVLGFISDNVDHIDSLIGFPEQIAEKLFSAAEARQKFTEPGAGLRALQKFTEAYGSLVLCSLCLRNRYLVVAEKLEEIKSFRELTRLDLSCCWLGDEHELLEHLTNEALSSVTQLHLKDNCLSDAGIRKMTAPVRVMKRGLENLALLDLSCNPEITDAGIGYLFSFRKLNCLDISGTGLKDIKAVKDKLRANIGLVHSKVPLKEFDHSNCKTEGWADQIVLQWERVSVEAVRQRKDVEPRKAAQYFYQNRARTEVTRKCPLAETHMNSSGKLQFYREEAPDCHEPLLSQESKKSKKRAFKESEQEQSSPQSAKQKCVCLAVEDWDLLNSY

Compound: CN[C@@H]1C[C@H]2O[C@@](C)([C@@H]1OC)n1c3ccccc3c3c4c(c5c6ccccc6n2c5c31)C(=O)NC4 [staurosporine]
Test: log2 fold change of tryptic peptide abundance, ligand vs vehicle (limited proteolysis) (log2 ratio); higher = more trypsin-susceptible (destabilized)
Conditions: ligand concentration: 20 uM; sample: mouse liver crude lysate; replicate design: treated separately

| Target | log2 fold change |
| --- | --- |
| UniProt Q8R3D1 (peptide sequence: RVEQTTLK, peptide start residue: 161) | -0.2 |
| UniProt Q8VCN5 (peptide sequence: LLEAAITPQTK, peptide start residue: 141) | -0.14 |
| UniProt Q8R3R5 (peptide sequence: IAPMFGKK, peptide start residue: 318) | 0.137 |
| UniProt Q8VCW8 (peptide sequence: KALEAISR, peptide start residue: 340) | -0.17 |
| UniProt Q8R2U7 (peptide sequence: KAAQYFYQNR, peptide start residue: 332) | -0.225 |
